Source: the supplement of paper PMC10849652
The other results are listed elsewhere or left out.

Sequences of proteins named here, by UniProt entry; tags and fusion partners are left off. A change or cut given only in a name is not applied to a line headed by its entry.
UniProt Q16739: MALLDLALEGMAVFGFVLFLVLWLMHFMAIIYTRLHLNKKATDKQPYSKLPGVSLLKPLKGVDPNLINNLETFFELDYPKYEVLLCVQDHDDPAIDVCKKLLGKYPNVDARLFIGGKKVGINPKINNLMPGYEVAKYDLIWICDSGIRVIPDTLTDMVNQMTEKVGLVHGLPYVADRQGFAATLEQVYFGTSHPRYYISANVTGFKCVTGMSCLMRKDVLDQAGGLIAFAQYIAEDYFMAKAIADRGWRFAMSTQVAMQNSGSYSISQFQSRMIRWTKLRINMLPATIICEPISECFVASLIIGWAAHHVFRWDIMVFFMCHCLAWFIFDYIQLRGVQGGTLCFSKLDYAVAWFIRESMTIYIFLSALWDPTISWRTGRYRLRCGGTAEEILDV
UniProt Q9BZX2: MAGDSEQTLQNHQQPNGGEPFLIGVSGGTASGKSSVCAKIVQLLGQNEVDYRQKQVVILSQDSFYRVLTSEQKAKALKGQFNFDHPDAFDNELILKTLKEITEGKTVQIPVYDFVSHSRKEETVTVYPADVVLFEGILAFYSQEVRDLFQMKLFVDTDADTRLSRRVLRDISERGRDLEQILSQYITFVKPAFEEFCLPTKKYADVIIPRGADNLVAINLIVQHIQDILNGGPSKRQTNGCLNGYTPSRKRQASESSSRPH
UniProt P22695: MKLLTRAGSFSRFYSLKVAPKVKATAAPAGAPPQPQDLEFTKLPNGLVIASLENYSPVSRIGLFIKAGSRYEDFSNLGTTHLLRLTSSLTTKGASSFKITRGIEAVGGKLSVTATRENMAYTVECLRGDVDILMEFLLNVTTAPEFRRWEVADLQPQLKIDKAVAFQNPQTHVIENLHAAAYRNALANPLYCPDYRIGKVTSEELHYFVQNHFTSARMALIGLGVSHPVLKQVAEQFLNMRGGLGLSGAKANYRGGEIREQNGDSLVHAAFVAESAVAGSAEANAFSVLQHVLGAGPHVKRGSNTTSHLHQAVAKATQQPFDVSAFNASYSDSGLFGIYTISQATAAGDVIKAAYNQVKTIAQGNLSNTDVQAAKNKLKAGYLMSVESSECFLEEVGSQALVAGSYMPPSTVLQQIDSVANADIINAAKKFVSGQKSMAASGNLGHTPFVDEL
UniProt P63027, whole entry, looked up: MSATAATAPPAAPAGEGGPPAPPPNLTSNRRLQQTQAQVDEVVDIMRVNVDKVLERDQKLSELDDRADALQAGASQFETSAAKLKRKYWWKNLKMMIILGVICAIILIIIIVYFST
UniProt Q969X6: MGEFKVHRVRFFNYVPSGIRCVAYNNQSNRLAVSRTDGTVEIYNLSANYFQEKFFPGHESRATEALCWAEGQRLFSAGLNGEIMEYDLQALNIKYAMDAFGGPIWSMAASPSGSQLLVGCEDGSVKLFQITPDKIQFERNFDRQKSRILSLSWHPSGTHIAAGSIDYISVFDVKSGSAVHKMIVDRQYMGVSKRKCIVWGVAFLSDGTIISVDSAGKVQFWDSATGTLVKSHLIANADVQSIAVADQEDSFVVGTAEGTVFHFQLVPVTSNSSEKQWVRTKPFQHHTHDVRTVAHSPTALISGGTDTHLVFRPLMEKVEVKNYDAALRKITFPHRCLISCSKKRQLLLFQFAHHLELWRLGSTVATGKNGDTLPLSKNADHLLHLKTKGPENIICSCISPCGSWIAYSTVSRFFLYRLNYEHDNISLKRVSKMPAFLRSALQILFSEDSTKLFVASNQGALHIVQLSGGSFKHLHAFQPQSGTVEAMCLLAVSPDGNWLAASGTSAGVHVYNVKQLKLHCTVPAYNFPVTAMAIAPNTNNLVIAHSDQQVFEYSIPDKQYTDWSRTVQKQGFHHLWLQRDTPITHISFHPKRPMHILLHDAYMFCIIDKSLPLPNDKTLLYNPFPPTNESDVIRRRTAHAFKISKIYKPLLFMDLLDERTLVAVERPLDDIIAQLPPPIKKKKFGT
UniProt Q68DE3: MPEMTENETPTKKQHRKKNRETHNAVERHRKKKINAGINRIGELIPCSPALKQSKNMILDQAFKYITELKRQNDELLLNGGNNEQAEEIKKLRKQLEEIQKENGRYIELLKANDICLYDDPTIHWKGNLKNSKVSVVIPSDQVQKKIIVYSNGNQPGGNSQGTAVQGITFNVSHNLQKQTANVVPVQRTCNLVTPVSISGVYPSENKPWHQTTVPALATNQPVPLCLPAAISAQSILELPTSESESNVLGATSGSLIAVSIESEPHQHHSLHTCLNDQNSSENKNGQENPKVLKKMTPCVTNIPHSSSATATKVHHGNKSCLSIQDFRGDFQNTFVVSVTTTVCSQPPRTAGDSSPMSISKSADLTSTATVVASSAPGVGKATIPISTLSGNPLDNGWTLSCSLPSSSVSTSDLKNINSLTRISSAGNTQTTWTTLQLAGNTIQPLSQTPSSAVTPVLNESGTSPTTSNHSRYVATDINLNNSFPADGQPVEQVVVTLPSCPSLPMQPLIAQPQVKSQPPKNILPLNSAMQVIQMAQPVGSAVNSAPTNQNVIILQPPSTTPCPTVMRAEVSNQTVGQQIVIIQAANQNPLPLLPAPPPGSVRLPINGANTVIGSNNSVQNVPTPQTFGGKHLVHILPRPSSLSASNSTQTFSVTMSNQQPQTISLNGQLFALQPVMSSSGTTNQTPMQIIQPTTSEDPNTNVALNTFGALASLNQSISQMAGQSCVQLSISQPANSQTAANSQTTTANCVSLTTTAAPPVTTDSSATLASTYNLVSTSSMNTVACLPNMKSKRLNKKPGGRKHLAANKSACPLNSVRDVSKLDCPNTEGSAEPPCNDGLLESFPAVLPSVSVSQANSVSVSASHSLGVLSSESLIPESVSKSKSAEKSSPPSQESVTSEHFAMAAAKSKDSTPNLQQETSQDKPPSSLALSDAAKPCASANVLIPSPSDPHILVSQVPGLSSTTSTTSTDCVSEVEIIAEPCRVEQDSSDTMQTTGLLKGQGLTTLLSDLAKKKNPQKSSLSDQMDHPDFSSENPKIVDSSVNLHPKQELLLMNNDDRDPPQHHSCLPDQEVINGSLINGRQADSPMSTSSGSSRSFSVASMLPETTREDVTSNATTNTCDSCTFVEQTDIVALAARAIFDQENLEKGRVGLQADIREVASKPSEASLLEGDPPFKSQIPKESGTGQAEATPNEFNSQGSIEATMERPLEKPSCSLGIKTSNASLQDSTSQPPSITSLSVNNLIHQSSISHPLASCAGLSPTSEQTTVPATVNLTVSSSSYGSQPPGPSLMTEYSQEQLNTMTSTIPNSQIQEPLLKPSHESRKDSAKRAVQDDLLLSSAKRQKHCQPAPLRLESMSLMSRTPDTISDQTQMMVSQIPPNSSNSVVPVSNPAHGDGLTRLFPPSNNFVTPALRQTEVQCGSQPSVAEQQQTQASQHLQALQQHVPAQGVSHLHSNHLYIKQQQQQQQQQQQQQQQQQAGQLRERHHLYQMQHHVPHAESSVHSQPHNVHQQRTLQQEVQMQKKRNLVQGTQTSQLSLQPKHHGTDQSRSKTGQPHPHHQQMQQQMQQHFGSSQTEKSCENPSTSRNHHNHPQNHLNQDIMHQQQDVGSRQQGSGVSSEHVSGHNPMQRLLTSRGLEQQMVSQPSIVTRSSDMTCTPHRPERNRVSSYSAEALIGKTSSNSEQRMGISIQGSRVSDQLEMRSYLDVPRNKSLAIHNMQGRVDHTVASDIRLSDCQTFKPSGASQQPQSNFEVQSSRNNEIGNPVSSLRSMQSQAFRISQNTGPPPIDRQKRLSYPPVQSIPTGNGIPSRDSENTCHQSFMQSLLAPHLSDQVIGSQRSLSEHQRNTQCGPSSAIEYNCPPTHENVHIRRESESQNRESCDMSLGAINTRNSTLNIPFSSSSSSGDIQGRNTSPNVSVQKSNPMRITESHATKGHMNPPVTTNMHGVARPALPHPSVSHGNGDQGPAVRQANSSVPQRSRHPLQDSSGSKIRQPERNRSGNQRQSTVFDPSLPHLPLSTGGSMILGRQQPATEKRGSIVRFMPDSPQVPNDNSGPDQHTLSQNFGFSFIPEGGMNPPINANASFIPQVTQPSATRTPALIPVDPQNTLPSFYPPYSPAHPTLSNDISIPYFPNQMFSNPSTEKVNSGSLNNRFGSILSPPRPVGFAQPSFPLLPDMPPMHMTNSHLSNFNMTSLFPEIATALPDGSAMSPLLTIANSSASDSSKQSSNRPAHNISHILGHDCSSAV
UniProt Q6PHR2: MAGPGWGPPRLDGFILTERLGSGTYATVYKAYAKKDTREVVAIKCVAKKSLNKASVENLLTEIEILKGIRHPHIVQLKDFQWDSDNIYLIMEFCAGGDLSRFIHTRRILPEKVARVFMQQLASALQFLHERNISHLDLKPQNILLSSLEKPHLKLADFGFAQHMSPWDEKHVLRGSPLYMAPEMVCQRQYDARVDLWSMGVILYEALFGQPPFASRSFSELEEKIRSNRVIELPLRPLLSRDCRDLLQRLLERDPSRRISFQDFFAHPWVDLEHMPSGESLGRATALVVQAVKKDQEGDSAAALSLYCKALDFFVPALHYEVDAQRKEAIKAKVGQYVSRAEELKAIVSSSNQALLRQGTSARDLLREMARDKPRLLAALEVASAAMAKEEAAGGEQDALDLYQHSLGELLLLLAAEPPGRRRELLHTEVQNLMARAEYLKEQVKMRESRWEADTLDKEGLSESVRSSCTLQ
UniProt Q96LJ8: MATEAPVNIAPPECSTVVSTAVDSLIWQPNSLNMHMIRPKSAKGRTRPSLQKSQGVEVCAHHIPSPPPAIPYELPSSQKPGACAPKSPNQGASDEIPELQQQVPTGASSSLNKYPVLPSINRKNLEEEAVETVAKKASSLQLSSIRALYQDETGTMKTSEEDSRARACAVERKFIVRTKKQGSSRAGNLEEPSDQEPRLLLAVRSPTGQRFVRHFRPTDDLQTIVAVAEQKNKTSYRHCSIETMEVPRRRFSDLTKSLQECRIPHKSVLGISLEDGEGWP
UniProt Q9BZM6: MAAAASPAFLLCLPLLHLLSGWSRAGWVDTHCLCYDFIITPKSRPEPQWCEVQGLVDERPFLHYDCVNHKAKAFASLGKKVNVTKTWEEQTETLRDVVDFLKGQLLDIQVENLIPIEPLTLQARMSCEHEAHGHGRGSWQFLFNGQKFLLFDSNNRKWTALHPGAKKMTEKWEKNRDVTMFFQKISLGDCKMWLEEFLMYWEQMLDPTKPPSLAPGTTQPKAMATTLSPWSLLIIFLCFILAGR
UniProt Q8TCY9: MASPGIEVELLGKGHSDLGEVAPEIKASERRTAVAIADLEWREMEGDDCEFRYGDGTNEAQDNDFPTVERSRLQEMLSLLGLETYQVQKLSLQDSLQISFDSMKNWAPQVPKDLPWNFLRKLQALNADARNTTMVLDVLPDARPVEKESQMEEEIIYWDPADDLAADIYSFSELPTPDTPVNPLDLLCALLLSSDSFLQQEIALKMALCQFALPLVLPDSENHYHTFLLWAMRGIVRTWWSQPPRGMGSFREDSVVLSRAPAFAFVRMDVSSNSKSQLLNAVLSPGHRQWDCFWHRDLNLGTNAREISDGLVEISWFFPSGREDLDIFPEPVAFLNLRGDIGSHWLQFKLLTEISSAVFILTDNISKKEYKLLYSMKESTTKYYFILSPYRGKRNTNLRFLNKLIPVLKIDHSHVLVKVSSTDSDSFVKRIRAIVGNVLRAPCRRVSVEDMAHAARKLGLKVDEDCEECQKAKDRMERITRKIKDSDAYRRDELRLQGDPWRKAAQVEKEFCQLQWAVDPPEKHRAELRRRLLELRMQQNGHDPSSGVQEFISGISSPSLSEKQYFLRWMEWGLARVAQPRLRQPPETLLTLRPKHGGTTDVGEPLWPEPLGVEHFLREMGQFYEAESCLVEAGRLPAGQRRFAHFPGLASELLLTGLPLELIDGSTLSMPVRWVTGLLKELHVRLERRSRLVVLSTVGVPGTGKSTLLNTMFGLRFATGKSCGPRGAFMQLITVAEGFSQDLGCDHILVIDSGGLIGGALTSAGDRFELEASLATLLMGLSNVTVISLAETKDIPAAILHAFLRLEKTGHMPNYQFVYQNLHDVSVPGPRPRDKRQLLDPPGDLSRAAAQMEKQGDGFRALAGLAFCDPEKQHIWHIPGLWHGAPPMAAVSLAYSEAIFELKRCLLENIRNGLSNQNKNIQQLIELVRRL
UniProt P61960, whole entry, looked up: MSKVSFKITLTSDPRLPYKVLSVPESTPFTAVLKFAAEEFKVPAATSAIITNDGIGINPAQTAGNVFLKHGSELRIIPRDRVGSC

Legend:
Assay in all cases: log2 fold change, soluble protein after heating vs DMSO (PISA); higher = thermal stabilisation; K562 cells, 10 uM, 30 min; active = over 0.2 and 3.5 SD of the protein, either way, in both replicates (recomputed)
[1] = compound: CC1=C(C=C(C=C1)NC(=O)C2=CC(=CC=C2)C(C)(C)C#N)NC3=CC4=C(C=C3)N=CN(C4=O)C
Outline: (§1)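 Values are thermal stability changes relative to control samples and are taken from duplicates. They are stated as log2 fold changes. Before quantification by TMTpro 16plex LC-MS/MS with equalised channel sums, K562 cells at 2×10^6 cells/mL were treated with 10 μM compound for 30 min, heated in aliquots for 3 min across 48°C-58°C, pooled, extracted in PBS with 0.5% NP-40 at 4°C, and centrifuged at 21,000xg for 90 min to give the soluble supernatant.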

[2] = compound: CC1=C(C=C(C=C1)NC(=O)C2=CC(=CC=C2)N(C)C)NC(=O)C3=CC=C(C=C3)O
Outline: as §1

[3] = compound: CC1=CC=C(C=C1)SC2=C3C=C(SC3=CN=C2)C(=O)N
Outline: as §1

[4] = compound: CC1=NC(=CC=C1)C2=C(N=C(N2)C(C)(C)C)C3=CC4=NC=CN=C4C=C3
Outline: as §1

Nexturastat A = compound: CCCCN(Cc1ccc(C(=O)NO)cc1)C(=O)Nc1ccccc1 [Nexturastat A]
Outline: as §1

vemurafenib = compound: CCCS(=O)(=O)Nc1ccc(F)c(C(=O)c2c[nH]c3ncc(-c4ccc(Cl)cc4)cc23)c1F [vemurafenib]
Outline: as §1

[5] = compound: CCCS(=O)(=O)Nc1ccc(F)c(C(=O)c2c[nH]c3ncc(Cl)cc23)c1F
Outline: as §1

[6] = compound: CCCc1cc(C)[nH]c(=O)c1CNC(=O)c1cc(-c2ccnc(N3CCN(C)CC3)c2)cc2c1cnn2C(C)C
Outline: as §1

givinostat = compound: CCN(CC)Cc1ccc2cc(COC(=O)Nc3ccc(C(=O)NO)cc3)ccc2c1 [givinostat]
Outline: as §1

barasertib = compound: CCN(CCCOc1ccc2c(Nc3cc(CC(=O)Nc4cccc(F)c4)[nH]n3)ncnc2c1)CCOP(=O)(O)O [barasertib]
Outline: as §1

With UGCG (UniProt Q16739) the log2 fold change [1] was inactive: -0.169, the log2 fold change [2] was inactive: -0.314 and the log2 fold change [3] was inactive: 0.002. For the same target, the log2 fold change [4] was inactive: -0.039, the log2 fold change (Nexturastat A) was inactive: 0.13 and the log2 fold change (vemurafenib) was inactive: -0.048. For the same target, the log2 fold change [5] was inactive: -0.226, the log2 fold change [6] was inactive: -0.02 and the log2 fold change (givinostat) was inactive: 0.059. For the same target, the log2 fold change (barasertib) was inactive: -0.049.

For UCK2 (UniProt Q9BZX2), the log2 fold change [1] was inactive: 0.017, the log2 fold change [2] was inactive: 0.045 and the log2 fold change [3] was inactive: -0.006. The log2 fold change [4] was inactive: 0.016, the log2 fold change (Nexturastat A) was inactive: 0 and the log2 fold change (vemurafenib) was inactive: 0.016. For the same target, the log2 fold change [5] was inactive: 0.005, the log2 fold change [6] was inactive: -0.011 and the log2 fold change (givinostat) was inactive: 0.032. For the same target, the log2 fold change (barasertib) was inactive: 0.031.

UQCRC2 (UniProt P22695) was tested, and the log2 fold change [1] was inactive: -0.026, the log2 fold change [2] was inactive: 0.016 and the log2 fold change [3] was inactive: 0.023. For the same target, the log2 fold change [4] was inactive: 0.032, the log2 fold change (Nexturastat A) was inactive: -0.027 and the log2 fold change (vemurafenib) was inactive: 0.025. The log2 fold change [5] was inactive: 0.03, the log2 fold change [6] was inactive: 0.002 and the log2 fold change (givinostat) was inactive: 0.008. The log2 fold change (barasertib) was inactive: -0.009.

For USP7 (UniProt Q93009), the log2 fold change [1] was inactive: 0.054, the log2 fold change [2] was inactive: -0.046 and the log2 fold change [3] was inactive: 0.007. The log2 fold change [4] was inactive: 0.012, the log2 fold change (Nexturastat A) was inactive: 0.015 and the log2 fold change (vemurafenib) was inactive: 0.036. For the same target, the log2 fold change [5] was inactive: 0.068, the log2 fold change [6] was inactive: 0 and the log2 fold change (givinostat) was inactive: 0.083. For the same target, the log2 fold change (barasertib) was inactive: 0.073.

For VAMP2 (UniProt P63027), the log2 fold change [1] was inactive: 0.064, the log2 fold change [2] was inactive: -0.039 and the log2 fold change [3] was inactive: 0.042. The log2 fold change [4] was inactive: 0.112, the log2 fold change (Nexturastat A) was inactive: -0.072 and the log2 fold change (vemurafenib) was inactive: 0.167. The log2 fold change [5] was inactive: 0.055, the log2 fold change [6] was inactive: 0.187 and the log2 fold change (givinostat) was inactive: 0.034. For the same target, the log2 fold change (barasertib) was inactive: 0.004.

With UTP4 (UniProt Q969X6) the log2 fold change [1] was inactive: -0.036, the log2 fold change [2] was inactive: 0.029 and the log2 fold change [3] was inactive: 0.009. For the same target, the log2 fold change [4] was inactive: -0.007, the log2 fold change (Nexturastat A) was inactive: -0.06 and the log2 fold change (vemurafenib) was inactive: -0.028. The log2 fold change [5] was inactive: -0.021, the log2 fold change [6] was inactive: -0.019 and the log2 fold change (givinostat) was inactive: -0.033. For the same target, the log2 fold change (barasertib) was inactive: -0.005.

USF3 (UniProt Q68DE3) was tested, and the log2 fold change [1] was inactive: -0.113, the log2 fold change [2] was inactive: 0.048 and the log2 fold change [3] was inactive: -0.378. The log2 fold change [4] was inactive: -0.223, the log2 fold change (Nexturastat A) was inactive: 0.196 and the log2 fold change (vemurafenib) was inactive: -0.02. For the same target, the log2 fold change [5] was inactive: -0.394, the log2 fold change [6] was inactive: -0.445 and the log2 fold change (barasertib) was inactive: 0.073.

ULK3 isoform 4 (UniProt Q6PHR2) was tested, and the log2 fold change [1] was inactive: 0.109, the log2 fold change [2] was inactive: 0.223 and the log2 fold change [3] was inactive: 0.021. For the same target, the log2 fold change [4] was inactive: -0.074, the log2 fold change (Nexturastat A) was inactive: -0.048 and the log2 fold change [5] was inactive: 0.097. For the same target, the log2 fold change (barasertib) was inactive: 0.107.

UBXN10 (UniProt Q96LJ8) was tested, and the log2 fold change [1] was inactive: 0.007, the log2 fold change [2] was inactive: -0.026 and the log2 fold change [3] was inactive: -0.071. For the same target, the log2 fold change [4] was inactive: 0.037, the log2 fold change (Nexturastat A) was inactive: 0.107 and the log2 fold change (vemurafenib) was inactive: -0.264. The log2 fold change [5] was inactive: -0.024, the log2 fold change [6] was inactive: -0.115 and the log2 fold change (givinostat) was inactive: 0.059. For the same target, the log2 fold change (barasertib) was inactive: -0.068.

For USP8 (UniProt P40818), the log2 fold change [1] was inactive: -0.014, the log2 fold change [2] was inactive: 0.03 and the log2 fold change [3] was inactive: 0.054. The log2 fold change [4] was inactive: -0.016, the log2 fold change (Nexturastat A) was inactive: 0.212 and the log2 fold change (vemurafenib) was inactive: 0.086. The log2 fold change [5] was inactive: 0.086, the log2 fold change [6] was inactive: 0.136 and the log2 fold change (givinostat) was inactive: 0.142. The log2 fold change (barasertib) was inactive: 0.039.

In the case of ULBP1 (UniProt Q9BZM6), the log2 fold change [1] is reported as inactive: -0.088, the log2 fold change [2] is reported as inactive: 0.023 and the log2 fold change [3] is reported as inactive: -0.014. The log2 fold change (Nexturastat A) was active: 0.428, the log2 fold change (vemurafenib) was inactive: 0.051 and the log2 fold change [5] was inactive: 0.053. For the same target, the log2 fold change [6] was inactive: 0 and the log2 fold change (givinostat) was inactive: 0.028.

For URGCP (UniProt Q8TCY9), the log2 fold change [1] was inactive: -0.031, the log2 fold change [2] was inactive: -0.002 and the log2 fold change [3] was inactive: 0.029. The log2 fold change [4] was inactive: 0.097, the log2 fold change (Nexturastat A) was inactive: -0.035 and the log2 fold change (vemurafenib) was inactive: -0.002. The log2 fold change [5] was inactive: 0.006, the log2 fold change (givinostat) was inactive: 0.009 and the log2 fold change (barasertib) was inactive: 0.

For UFM1 (UniProt P61960), the log2 fold change [1] was inactive: 0.031, the log2 fold change [2] was inactive: -0.046 and the log2 fold change [3] was inactive: 0.06. For the same target, the log2 fold change [4] was inactive: 0.183, the log2 fold change (Nexturastat A) was inactive: -0.04 and the log2 fold change (vemurafenib) was inactive: 0.07. For the same target, the log2 fold change [5] was inactive: 0.041, the log2 fold change [6] was inactive: -0.083 and the log2 fold change (givinostat) was inactive: 0.087. For the same target, the log2 fold change (barasertib) was inactive: -0.014.

USP32 (UniProt Q8NFA0) was tested, and the log2 fold change [1] was inactive: -0.116, the log2 fold change [2] was inactive: -0.082 and the log2 fold change [3] was inactive: 0.07. The log2 fold change [4] was inactive: 0.033, the log2 fold change (Nexturastat A) was inactive: -0.07 and the log2 fold change [5] was inactive: 0.007. For the same target, the log2 fold change (givinostat) was inactive: 0.434.

In the case of UBR2 (UniProt Q8IWV8), the log2 fold change [1] is reported as inactive: 0.079, the log2 fold change [2] is reported as inactive: -0.08 and the log2 fold change [3] is reported as inactive: 0.048. The log2 fold change [4] was inactive: -0.03, the log2 fold change (Nexturastat A) was inactive: 0.078 and the log2 fold change (vemurafenib) was inactive: 0.029. For the same target, the log2 fold change [5] was inactive: 0.037, the log2 fold change [6] was inactive: -0.038 and the log2 fold change (givinostat) was inactive: 0.192. The log2 fold change (barasertib) was inactive: 0.046.
